Experimental data taken from patent US20070249620A1, “Urea Derivative” (priority 2004, published 2007).
Some of these results come from one statement about several compounds together.

System: male C57BL/6N mouse
Assay: Neutral fat absorption inhibitory effect (triglyceride concentration in small intestine lymph fluid after oral fat emulsion)
Type: in vivo
Conditions: compound 10 or 30 mg/kg orally with 20% neutral fat emulsion, one hour after administration

Row | SMILES | neutral fat absorption inhibitory effect (decrease in triglyceride concentration in lymph fluid vs control group) [%]
1 | COc1cc(NC(=O)Nc2ccc(N3CCN(C(=O)Nc4cc(OCCO)ccc4Cl)CC3)cc2)cc(OC)c1 [Example 234, 4-{4-[3-(3,5-dimethoxy-phenyl)-ureido]-phenyl}-piperazine-1-carboxylic acid [2-chloro-5-(2-hydroxy-ethoxy)-phenyl]-amide] | ≥ 60
2 | COc1ccccc1NC(=O)Nc1ccc(N2CCN(C(=O)Nc3cc(OCCO)ccc3Cl)CC2)nc1 [Example 235, 4-{5-[3-(2-methoxy-phenyl)-ureido]-pyridin-2-yl}-piperazine-1-carboxylic acid [2-chloro-5-(2-hydroxy-ethoxy)-phenyl]-amide] | ≥ 60
3 | CCOc1cccc(NC(=O)Nc2ccc(N3CCN(C(=O)Nc4cc(OCCO)ccc4Cl)CC3)nc2)c1 [Example 236, 4-{5-[3-(3-ethoxy-phenyl)-ureido]-pyridin-2-yl}-piperazine-1-carboxylic acid [2-chloro-5-(2-hydroxy-ethoxy)-phenyl]-amide] | ≥ 60
4 | COc1ccc(C)cc1NC(=O)Nc1ccc(N2CCN(C(=O)Nc3cc(OCCO)ccc3Cl)CC2)nc1 [Example 238, 4-{5-[3-(2-methoxy-5-methyl-phenyl)-ureido]-pyridin-2-yl}-piperazine-1-carboxylic acid [2-chloro-5-(2-hydroxy-ethoxy)-phenyl]-amide] | ≥ 60
5 | COc1ccc(C)cc1NC(=O)Nc1ccc(N2CCN(C(=O)Nc3ccc(OCCO)cc3Cl)CC2)cc1 [Example 248, 4-{4-[3-(2-methoxy-5-methyl-phenyl)-ureido]-phenyl}-piperazine-1-carboxylic acid [2-chloro-4-(2-hydroxy-ethoxy)-phenyl]-amide] | ≥ 60
6 | COc1cccc(NC(=O)Nc2ccc(N3CCN(C(=O)Nc4ccc(OCCO)cc4Cl)CC3)cc2)c1 [Example 249, 4-{4-[3-(3-methoxy-phenyl)-ureido]-phenyl}-piperazine-1-carboxylic acid [2-chloro-4-(2-hydroxy-ethoxy)-phenyl]-amide] | ≥ 60
7 | COc1cc(NC(=O)Nc2ccc(N3CCN(C(=O)Nc4ccc(OCCO)cc4Cl)CC3)cc2)cc(OC)c1 [Example 250, 4-{4-[3-(3,5-dimethoxy-phenyl)-ureido]-phenyl}-piperazine-1-carboxylic acid [2-chloro-4-(2-hydroxy-ethoxy)-phenyl]-amide] | ≥ 60
8 | COc1ccccc1NC(=O)Nc1ccc(N2CCN(C(=O)Nc3ccc(OCCO)cc3Cl)CC2)cc1 [Example 251, 4-{4-[3-(2-methoxy-phenyl)-ureido]-phenyl}-piperazine-1-carboxylic acid [2-chloro-4-(2-hydroxy-ethoxy)-phenyl]-amide] | ≥ 60
9 | COc1ccc(C)cc1NC(=O)Nc1ccc(N2CCN(C(=O)Nc3ccc(OCCO)cc3Cl)CC2)c(F)c1 [Example 253, 4-{2-fluoro-4-[3-(2-methoxy-5-methyl-phenyl)-ureido]-phenyl}-piperazine-1-carboxylic acid [2-chloro-4-(2-hydroxy-ethoxy)-phenyl]-amide] | ≥ 60
10 | COc1ccc(C)cc1NC(=O)Nc1ccc(C2=CCN(C(=O)Nc3ccc(OCCO)cc3Cl)CC2)cc1 [Example 256, 4-{4-[3-(2-methoxy-5-methyl-phenyl)-ureido]-phenyl}-3,6-dihydro-2H-pyridine-1-carboxylic acid [2-chloro-4-(2-hydroxy-ethoxy)-phenyl]-amide] | ≥ 60
11 | COc1ccc(C)cc1NC(=O)Nc1ccc(C2CCN(C(=O)Nc3ccc(OCCO)cc3Cl)CC2)cc1 [Example 257, 4-{4-[3-(2-methoxy-5-methyl-phenyl)-ureido]-phenyl}-piperidine-1-carboxylic acid [2-chloro-4-(2-hydroxy-ethoxy)-phenyl]-amide] | ≥ 60
12 | COc1ccc(C)cc1NC(=O)Nc1ccc(N2CCN(C(=O)Nc3ccc(OCCO)cc3Cl)CC2)nc1 [Example 268, 4-{5-[3-(2-methoxy-5-methyl-phenyl)-ureido]-pyridin-2-yl}-piperazine-1-carboxylic acid [2-chloro-4-(2-hydroxy-ethoxy)-phenyl]-amide] | ≥ 60
13 | COc1ccccc1NC(=O)Nc1ccc(N2CCN(C(=O)Nc3ccc(OCCO)cc3Cl)CC2)c(Cl)c1 [Example 269, 4-{2-chloro-4-[3-(2-methoxy-phenyl)-ureido]-phenyl}-piperazine-1-carboxylic acid [2-chloro-4-(2-hydroxy-ethoxy)-phenyl]-amide] | ≥ 60
14 | Cc1nc(NC(=O)Nc2ccc(N3CCN(C(=O)Nc4ccc(OCCO)cc4Cl)CC3)nc2)sc1C [Example 271, 4-{5-[3-(4,5-dimethyl-thiazol-2-yl)-ureido]-pyridin-2-yl}-piperazine-1-carboxylic acid [2-chloro-4-(2-hydroxy-ethoxy)-phenyl]-amide] | ≥ 60
15 | Cc1nc(NC(=O)Nc2ccc(N3CCN(C(=O)Nc4ccc(OCCO)cc4Cl)CC3)cc2)sc1C [Example 272, 4-{4-[3-(4,5-dimethyl-thiazol-2-yl)-ureido]-phenyl}-piperazine-1-carboxylic acid [2-chloro-4-(2-hydroxy-ethoxy)-phenyl]-amide] | ≥ 60
16 | COc1ccc(C)cc1NC(=O)Nc1ccc(N2CCN(C(=O)Nc3ccc(OCC(O)CO)cc3C(F)(F)F)CC2)cc1 (centres unmarked) [Example 275, 4-{4-[3-(2-methoxy-5-methyl-phenyl)-ureido]-phenyl}-piperazine-1-carboxylic acid [4-(2,3-dihydroxy-propoxy)-2-trifluoromethyl-phenyl]-amide] | ≥ 60
17 | COc1ccc(C)cc1NC(=O)Nc1ccc(N2CCN(C(=O)Nc3ccc(OCC(O)CO)cc3C)CC2)cc1 (centres unmarked) [Example 276, 4-{4-[3-(2-methoxy-5-methyl-phenyl)-ureido]-phenyl}-piperazine-1-carboxylic acid [4-(2,3-dihydroxy-propoxy)-2-methyl-phenyl]-amide] | ≥ 60
18 | COc1ccc(C)cc1NC(=O)Nc1ccc(N2CCN(C(=O)Nc3ccc(OCC(O)CO)cc3Cl)CC2)cc1 (centres unmarked) [Example 277, 4-{4-[3-(2-methoxy-5-methyl-phenyl)-ureido]-phenyl}-piperazine-1-carboxylic acid [2-chloro-4-(2,3-dihydroxy-propoxy)-phenyl]-amide] | ≥ 60
19 | COc1ccc(F)cc1NC(=O)Nc1ccc(N2CCN(C(=O)Nc3ccc(OCC(O)CO)cc3C(F)(F)F)CC2)nc1 (centres unmarked) [Example 279, 4-{5-[3-(5-fluoro-2-methoxy-phenyl)-ureido]-pyridin-2-yl}-piperazine-1-carboxylic acid [4-(2,3-dihydroxy-propoxy)-2-trifluoromethyl-phenyl]-amide] | ≥ 60
20 | COc1ccc(C)cc1NC(=O)Nc1ccc2c(c1)CCN(C(=O)Nc1ccc(OCC(O)CO)cc1Cl)C2 (centres unmarked) [Example 280, 6-[3-(2-methoxy-5-methyl-phenyl)-ureido]-3,4-dihydro-1H-isoquinoline-2-carboxylic acid [2-chloro-4-(2,3-dihydroxy-propoxy)-phenyl]-amide] | ≥ 60
21 | COc1ccc(C)cc1NC(=O)Nc1ccc(C2=CCN(C(=O)Nc3ccc(OCC(O)CO)cc3Cl)CC2)cc1 (centres unmarked) [Example 281, 4-{4-[3-(2-methoxy-5-methyl-phenyl)-ureido]-phenyl}-3,6-dihydro-2H-pyridine-1-carboxylic acid [2-chloro-4-(2,3-dihydroxy-propoxy)-phenyl]-amide] | ≥ 60
22 | COc1ccc(C)cc1NC(=O)Nc1ccc(C2=CCN(C(=O)Nc3ccc(OCC(O)CO)cc3C(F)(F)F)CC2)cc1 (centres unmarked) [Example 282, 4-{4-[3-(2-methoxy-5-methyl-phenyl)-ureido]-phenyl}-3,6-dihydro-2H-pyridine-1-carboxylic acid [4-(2,3-dihydroxy-propoxy)-2-trifluoromethyl-phenyl]-amide] | ≥ 60
23 | COc1ccc(C)cc1NC(=O)Nc1ccc(C2CCN(C(=O)Nc3ccc(OCC(O)CO)cc3Cl)CC2)cc1 (centres unmarked) [Example 283, 4-{4-[3-(2-methoxy-5-methyl-phenyl)-ureido]-phenyl}-piperidine-1-carboxylic acid [2-chloro-4-(2,3-dihydroxy-propoxy)-phenyl]-amide] | ≥ 60
24 | COc1ccc(C)cc1NC(=O)Nc1ccc2c(c1)CCN(C(=O)Nc1ccc(OCC(O)CO)cc1C(F)(F)F)C2 (centres unmarked) [Example 293, 6-[3-(2-methoxy-5-methyl-phenyl)-ureido]-3,4-dihydro-1H-isoquinoline-2-carboxylic acid [4-(2,3-dihydroxy-propoxy)-2-trifluoromethyl-phenyl]-amide] | ≥ 60
25 | COc1ccc(C)cc1NC(=O)Nc1ccc(N2CCN(C(=O)Nc3ncccc3C)CC2)cc1 [Example 294, 4-{4-[3-(2-methoxy-5-methyl-phenyl)-ureido]-phenyl}-piperazine-1-carboxylic acid (3-methyl-pyridin-2-yl)-amide] | ≥ 60
26 | COc1ccc(F)cc1NC(=O)Nc1ccc(N2CCN(C(=O)Nc3ncccc3C)CC2)nc1 [Example 298, 4-{5-[3-(5-fluoro-2-methoxy-phenyl)-ureido]-pyridin-2-yl}-piperazine-1-carboxylic acid (3-methyl-pyridin-2-yl)-amide] | ≥ 60
